Laboratory results published in the supplement of paper PMC10849652.
The other results are listed elsewhere or left out.

By UniProt entry, the sequences of proteins in these tests, tags left out. Where a name states a change or a piece, a line headed by the entry shows the natural chain unless it says otherwise.
UniProt Q12849: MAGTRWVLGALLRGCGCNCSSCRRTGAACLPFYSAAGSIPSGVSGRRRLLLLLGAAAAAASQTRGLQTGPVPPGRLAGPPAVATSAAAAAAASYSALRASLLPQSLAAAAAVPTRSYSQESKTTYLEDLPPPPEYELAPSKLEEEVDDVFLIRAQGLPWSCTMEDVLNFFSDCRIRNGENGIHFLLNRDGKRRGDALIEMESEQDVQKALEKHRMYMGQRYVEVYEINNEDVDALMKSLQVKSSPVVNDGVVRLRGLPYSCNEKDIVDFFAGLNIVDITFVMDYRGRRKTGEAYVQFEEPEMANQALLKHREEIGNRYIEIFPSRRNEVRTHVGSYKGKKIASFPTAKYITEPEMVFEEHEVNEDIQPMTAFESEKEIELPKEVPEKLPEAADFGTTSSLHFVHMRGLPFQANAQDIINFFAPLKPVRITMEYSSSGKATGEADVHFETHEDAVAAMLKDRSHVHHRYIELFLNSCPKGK
UniProt P43250, whole entry, looked up: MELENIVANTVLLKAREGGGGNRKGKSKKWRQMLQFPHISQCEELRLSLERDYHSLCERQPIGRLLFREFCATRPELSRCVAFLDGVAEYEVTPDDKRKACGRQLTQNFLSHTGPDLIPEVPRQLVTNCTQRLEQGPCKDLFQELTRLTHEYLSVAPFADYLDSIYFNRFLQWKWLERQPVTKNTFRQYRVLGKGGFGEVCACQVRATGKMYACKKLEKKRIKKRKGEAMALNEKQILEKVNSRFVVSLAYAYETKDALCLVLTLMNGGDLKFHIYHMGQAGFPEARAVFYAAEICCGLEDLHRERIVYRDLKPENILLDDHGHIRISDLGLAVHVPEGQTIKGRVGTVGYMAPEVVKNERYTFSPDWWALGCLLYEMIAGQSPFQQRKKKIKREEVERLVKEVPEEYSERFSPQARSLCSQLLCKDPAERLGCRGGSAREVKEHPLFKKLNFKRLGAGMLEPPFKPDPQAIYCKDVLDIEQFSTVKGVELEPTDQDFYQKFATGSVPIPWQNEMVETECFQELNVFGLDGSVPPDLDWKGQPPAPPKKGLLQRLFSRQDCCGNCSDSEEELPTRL
UniProt P09105: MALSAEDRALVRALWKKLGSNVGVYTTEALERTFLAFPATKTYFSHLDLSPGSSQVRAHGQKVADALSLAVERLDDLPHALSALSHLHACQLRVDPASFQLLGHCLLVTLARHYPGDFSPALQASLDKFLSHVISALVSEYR
UniProt Q86XA9: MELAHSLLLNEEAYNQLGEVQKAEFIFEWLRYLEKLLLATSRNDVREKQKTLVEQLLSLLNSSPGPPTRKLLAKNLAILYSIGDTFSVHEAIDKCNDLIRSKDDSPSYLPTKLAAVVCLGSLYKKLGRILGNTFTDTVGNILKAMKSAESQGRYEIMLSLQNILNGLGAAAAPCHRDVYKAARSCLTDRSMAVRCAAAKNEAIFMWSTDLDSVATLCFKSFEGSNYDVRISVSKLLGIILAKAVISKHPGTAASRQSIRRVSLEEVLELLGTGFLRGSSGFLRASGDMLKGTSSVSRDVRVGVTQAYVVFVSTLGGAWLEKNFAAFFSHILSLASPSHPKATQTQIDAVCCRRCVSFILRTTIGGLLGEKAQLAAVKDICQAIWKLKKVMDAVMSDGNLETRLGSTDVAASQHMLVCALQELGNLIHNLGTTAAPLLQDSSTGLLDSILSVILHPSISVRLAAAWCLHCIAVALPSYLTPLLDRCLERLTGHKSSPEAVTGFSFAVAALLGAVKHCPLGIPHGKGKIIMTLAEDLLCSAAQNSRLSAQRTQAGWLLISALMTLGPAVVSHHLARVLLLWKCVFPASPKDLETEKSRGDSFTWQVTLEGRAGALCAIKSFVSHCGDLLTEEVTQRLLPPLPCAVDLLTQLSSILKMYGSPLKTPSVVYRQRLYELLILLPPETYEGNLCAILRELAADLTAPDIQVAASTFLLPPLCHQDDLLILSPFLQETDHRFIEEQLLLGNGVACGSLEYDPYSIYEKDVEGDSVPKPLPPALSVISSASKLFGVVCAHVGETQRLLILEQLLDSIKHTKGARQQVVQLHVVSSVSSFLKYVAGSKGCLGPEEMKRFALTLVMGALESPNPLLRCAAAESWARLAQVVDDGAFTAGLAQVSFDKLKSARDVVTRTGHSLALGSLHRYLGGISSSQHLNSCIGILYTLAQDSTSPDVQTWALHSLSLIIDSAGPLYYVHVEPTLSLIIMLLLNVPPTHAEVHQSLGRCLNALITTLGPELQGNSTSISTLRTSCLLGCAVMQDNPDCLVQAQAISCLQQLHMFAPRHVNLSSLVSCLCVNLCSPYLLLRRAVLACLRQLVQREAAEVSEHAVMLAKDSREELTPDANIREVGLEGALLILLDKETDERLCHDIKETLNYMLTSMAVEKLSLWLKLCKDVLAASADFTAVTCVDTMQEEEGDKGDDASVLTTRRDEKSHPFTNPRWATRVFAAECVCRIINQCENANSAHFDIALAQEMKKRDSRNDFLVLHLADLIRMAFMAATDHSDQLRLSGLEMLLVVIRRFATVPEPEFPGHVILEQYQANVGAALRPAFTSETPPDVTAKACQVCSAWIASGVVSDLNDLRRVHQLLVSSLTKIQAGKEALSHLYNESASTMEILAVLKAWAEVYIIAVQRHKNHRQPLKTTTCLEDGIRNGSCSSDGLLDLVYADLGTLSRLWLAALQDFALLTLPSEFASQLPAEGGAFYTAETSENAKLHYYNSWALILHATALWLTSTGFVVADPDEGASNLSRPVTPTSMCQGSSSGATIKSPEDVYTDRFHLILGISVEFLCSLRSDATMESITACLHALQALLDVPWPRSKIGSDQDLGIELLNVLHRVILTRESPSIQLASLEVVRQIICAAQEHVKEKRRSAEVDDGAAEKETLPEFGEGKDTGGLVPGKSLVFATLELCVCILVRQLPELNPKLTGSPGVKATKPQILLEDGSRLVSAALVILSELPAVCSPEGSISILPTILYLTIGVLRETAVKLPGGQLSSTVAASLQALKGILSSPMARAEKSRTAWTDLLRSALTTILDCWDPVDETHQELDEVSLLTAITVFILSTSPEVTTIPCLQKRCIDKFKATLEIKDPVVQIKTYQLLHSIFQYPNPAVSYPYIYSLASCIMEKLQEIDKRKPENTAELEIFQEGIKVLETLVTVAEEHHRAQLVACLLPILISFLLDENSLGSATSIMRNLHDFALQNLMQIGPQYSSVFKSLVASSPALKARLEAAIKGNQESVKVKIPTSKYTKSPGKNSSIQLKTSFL
UniProt Q7Z4V5: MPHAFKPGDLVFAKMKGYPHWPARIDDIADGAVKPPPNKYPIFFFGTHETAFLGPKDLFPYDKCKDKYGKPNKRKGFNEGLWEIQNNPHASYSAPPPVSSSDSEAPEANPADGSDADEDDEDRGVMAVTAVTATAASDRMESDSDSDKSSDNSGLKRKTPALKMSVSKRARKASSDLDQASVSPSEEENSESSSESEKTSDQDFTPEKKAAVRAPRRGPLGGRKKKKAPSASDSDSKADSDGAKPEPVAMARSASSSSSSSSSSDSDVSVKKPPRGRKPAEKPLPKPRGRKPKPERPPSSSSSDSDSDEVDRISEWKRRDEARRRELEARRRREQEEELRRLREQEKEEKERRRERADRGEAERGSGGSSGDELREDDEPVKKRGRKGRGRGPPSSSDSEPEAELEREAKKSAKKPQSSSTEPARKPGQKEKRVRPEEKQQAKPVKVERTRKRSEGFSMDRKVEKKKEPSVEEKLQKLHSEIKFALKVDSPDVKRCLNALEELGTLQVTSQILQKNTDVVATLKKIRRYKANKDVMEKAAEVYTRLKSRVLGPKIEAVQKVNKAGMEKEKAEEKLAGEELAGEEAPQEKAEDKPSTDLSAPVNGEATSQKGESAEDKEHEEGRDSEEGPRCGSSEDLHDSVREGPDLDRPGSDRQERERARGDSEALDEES
UniProt O75791: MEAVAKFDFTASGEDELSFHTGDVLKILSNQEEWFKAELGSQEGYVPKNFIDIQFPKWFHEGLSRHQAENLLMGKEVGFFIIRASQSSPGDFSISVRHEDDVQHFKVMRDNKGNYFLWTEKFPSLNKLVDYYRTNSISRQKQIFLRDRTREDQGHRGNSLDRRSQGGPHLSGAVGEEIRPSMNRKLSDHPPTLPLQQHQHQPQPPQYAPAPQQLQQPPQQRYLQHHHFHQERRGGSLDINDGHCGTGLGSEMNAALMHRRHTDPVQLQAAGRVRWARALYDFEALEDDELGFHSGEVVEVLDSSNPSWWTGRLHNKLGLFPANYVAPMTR
UniProt Q13547, whole entry, looked up: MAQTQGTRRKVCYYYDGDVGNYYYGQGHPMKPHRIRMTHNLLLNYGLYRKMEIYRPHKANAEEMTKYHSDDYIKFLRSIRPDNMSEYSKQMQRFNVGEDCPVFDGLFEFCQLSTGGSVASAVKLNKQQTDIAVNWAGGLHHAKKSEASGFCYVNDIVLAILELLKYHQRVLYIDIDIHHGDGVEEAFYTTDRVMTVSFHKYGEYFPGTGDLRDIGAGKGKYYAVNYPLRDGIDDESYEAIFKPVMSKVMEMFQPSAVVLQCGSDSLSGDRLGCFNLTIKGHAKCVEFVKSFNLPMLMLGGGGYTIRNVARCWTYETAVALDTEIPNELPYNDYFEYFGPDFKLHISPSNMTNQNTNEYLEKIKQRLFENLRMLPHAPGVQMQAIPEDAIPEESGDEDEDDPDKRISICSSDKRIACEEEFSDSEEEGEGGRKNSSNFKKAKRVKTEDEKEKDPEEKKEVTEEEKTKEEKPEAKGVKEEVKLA
UniProt Q8N442: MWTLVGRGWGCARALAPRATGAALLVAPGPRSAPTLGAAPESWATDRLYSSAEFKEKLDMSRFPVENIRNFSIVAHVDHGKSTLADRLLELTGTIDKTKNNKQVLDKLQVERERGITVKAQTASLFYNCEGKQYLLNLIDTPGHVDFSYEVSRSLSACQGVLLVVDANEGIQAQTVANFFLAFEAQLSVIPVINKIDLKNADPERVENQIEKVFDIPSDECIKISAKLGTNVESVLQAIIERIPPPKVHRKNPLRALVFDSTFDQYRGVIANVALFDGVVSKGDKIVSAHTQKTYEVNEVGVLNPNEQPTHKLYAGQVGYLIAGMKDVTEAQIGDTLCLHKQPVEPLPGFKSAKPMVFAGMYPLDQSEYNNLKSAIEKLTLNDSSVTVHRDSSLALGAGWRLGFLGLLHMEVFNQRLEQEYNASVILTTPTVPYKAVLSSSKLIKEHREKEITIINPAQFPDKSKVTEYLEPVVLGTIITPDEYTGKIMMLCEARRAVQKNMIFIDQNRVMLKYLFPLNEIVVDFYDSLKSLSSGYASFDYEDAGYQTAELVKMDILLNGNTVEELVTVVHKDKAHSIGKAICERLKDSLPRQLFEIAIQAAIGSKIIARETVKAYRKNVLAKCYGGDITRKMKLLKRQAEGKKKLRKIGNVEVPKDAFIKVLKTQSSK
UniProt P0C0S5, whole entry, looked up: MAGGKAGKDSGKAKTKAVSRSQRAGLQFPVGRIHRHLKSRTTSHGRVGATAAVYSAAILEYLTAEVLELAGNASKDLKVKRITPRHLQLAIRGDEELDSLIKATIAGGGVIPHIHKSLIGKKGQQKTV
UniProt Q8IYD1, whole entry, looked up: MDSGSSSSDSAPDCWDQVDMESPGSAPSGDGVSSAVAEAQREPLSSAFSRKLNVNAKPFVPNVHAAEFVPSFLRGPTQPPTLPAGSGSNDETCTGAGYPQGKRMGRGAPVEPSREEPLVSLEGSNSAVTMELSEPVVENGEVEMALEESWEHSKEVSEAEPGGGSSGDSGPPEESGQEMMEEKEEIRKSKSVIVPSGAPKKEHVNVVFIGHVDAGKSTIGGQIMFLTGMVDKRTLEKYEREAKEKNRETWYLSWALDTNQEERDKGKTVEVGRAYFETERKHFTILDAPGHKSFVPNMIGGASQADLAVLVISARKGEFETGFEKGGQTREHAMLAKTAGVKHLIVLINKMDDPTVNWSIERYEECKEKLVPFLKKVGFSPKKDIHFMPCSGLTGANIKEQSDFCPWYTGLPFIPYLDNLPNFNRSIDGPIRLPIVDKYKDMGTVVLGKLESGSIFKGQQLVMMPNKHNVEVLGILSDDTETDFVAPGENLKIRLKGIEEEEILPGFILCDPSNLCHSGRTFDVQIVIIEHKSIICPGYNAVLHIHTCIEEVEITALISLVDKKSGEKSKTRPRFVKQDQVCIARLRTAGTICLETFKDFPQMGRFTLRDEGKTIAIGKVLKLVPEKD
UniProt P16403, whole entry, looked up: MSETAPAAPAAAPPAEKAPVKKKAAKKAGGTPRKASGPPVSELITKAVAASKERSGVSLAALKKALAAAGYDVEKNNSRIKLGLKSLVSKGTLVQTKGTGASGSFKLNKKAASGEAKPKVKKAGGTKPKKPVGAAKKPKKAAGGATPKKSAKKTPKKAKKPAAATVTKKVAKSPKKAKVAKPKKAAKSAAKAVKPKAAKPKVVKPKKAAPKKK

Tests used:
Experiment in all cases: log2 fold change, soluble protein after heating vs DMSO (PISA); higher = thermal stabilisation; K562 lysate, 10 uM; active = over 0.2 and 3.5 SD of the protein, either way, in both replicates (recomputed)
vemurafenib = compound: CCCS(=O)(=O)Nc1ccc(F)c(C(=O)c2c[nH]c3ncc(-c4ccc(Cl)cc4)cc23)c1F [vemurafenib]
How it was run: (§1)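 Soluble protein was defined as the supernatant remaining after 21,000xg for 90 min, following pooling of heated aliquots and adjustment to 0.5% NP-40 at 4°C. Before that, crude K562 extract at 1 mg/mL protein in PBS pH 7.4 with 1 mM MgCl2 was treated with 10 μM compound for 30 min and heated for 3 min across 48°C-58°C. Quantification used TMTpro 16plex LC-MS/MS with channel sums equalised, and values are log-two fold changes in thermal stability relative to solvent controls from duplicates.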

[1] = compound: CCCS(=O)(=O)Nc1ccc(F)c(C(=O)c2c[nH]c3ncc(Cl)cc23)c1F
How it was run: as §1

barasertib = compound: CCN(CCCOc1ccc2c(Nc3cc(CC(=O)Nc4cccc(F)c4)[nH]n3)ncnc2c1)CCOP(=O)(O)O [barasertib]
How it was run: as §1

[2] = compound: CC[C@@H]1C(=O)N(C)c2cnc(Nc3ccc(C(=O)NC4CCN(C)CC4)cc3OC)nc2N1C1CCCC1
How it was run: as §1

volasertib = compound: CC[C@@H]1C(=O)N(C)c2cnc(Nc3ccc(C(=O)N[C@H]4CC[C@H](N5CCN(CC6CC6)CC5)CC4)cc3OC)nc2N1C(C)C [volasertib]
How it was run: as §1

[3] = compound: CCn1c(C(=O)N(C2CC2)C2CC2)cc2c3c(ncn3C)c(Nc3cc(C)n(C)n3)nc21
How it was run: as §1

[4] = compound: CCn1cc(-c2ccnc3[nH]c(-c4cccc(CN(C)C)c4)cc23)c(-c2ccc(NC(=O)N(C)C)cc2)n1
How it was run: as §1

[5] = compound: CN1CCC(CNc2ccc3ncc(-c4cccc(OC(F)(F)F)c4)n3n2)CC1
How it was run: as §1

saracatinib = compound: CN1CCN(CCOc2cc(OC3CCOCC3)c3c(Nc4c(Cl)ccc5c4OCO5)ncnc3c2)CC1 [saracatinib]
How it was run: as §1

sotrastaurin = compound: CN1CCN(c2nc(C3=C(c4c[nH]c5ccccc45)C(=O)NC3=O)c3ccccc3n2)CC1 [sotrastaurin]
How it was run: as §1

alvocidib = compound: CN1CC[C@H](c2c(O)cc(O)c3c(=O)cc(-c4ccccc4Cl)oc23)[C@H](O)C1 [alvocidib]
How it was run: as §1

Tubastatin A = compound: CN1CCc2c(c3ccccc3n2Cc2ccc(C(=O)NO)cc2)C1 [Tubastatin A]
How it was run: as §1

[6] = compound: CNC(=O)C1=CC=CC=C1NC2=NC(=NC=C2Cl)NC3=C(C=C(C=C3)N4CCOCC4)OC
How it was run: as §1

defactinib = compound: CNC(=O)c1ccc(Nc2ncc(C(F)(F)F)c(NCc3nccnc3N(C)S(C)(=O)=O)n2)cc1 [defactinib]
How it was run: as §1

[7] = compound: CNc1nc(-c2ccc3c(N)n[nH]c3c2)cc(N2C[C@@H](C(=O)NC3CCCCC3)CC[C@H]2C)n1
How it was run: as §1

encorafenib = compound: COC(=O)N[C@@H](C)CNc1nccc(-c2cn(C(C)C)nc2-c2cc(Cl)cc(NS(C)(=O)=O)c2F)n1 [encorafenib]
How it was run: as §1

[8] = compound: COC(=O)[C@H](CCSC)NC(=O)C1=C(C=C(C=C1)NC[C@H](CS)N)C2=CC=CC=C2
How it was run: as §1

alisertib = compound: COc1cc(Nc2ncc3c(n2)-c2ccc(Cl)cc2C(c2c(F)cccc2OC)=NC3)ccc1C(=O)O [alisertib]
How it was run: as §1

[9] = compound: COc1cc2nc(-c3cc(F)ccc3O)nc(N[C@@H]3CNC[C@H]3C(C)(C)O)c2cc1OC
How it was run: as §1

gefitinib = compound: COc1cc2ncnc(Nc3ccc(F)c(Cl)c3)c2cc1OCCCN1CCOCC1 [gefitinib]
How it was run: as §1

Target	log2 fold change (vemurafenib)	log2 fold change [1]	log2 fold change (barasertib)	log2 fold change [2]	log2 fold change (volasertib)	log2 fold change [3]	log2 fold change [4]	log2 fold change [5]	log2 fold change (saracatinib)	log2 fold change (sotrastaurin)	log2 fold change (alvocidib)	log2 fold change (Tubastatin A)	log2 fold change [6]	log2 fold change (defactinib)	log2 fold change [7]	log2 fold change (encorafenib)	log2 fold change [8]	log2 fold change (alisertib)	log2 fold change [9]	log2 fold change (gefitinib)
GRSF1 (UniProt Q12849)	inactive: 0.056	inactive: 0.028	inactive: 0.01	inactive: 0	inactive: -0.032	inactive: -0.025	inactive: -0.076	inactive: 0.031	inactive: -0.015	inactive: -0.003	inactive: -0.011	inactive: -0.008	inactive: -0.033	inactive: -0.001	inactive: 0.009	inactive: 0.011	inactive: -0.001	inactive: -0.019	inactive: -0.064	inactive: 0.021
GRK6 isoform 2 (UniProt P43250)	inactive: 0.102	inactive: 0.046	inactive: 0.042	inactive: 0.11	inactive: 0.006	inactive: -0.032	inactive: -0.136	active: 0.614	inactive: -0.056	inactive: -0.001	inactive: -0.05	inactive: 0.074	inactive: 0.007	inactive: 0.034	inactive: 0.148	inactive: -0.082	inactive: 0.043	inactive: -0.04	inactive: -0.015	inactive: 0.064
HBQ1 (UniProt P09105)	inactive: 0.076	inactive: 0.007	inactive: 0.077	inactive: -0.039	inactive: 0.057	inactive: -0.006	inactive: -0.116	inactive: -0.011	inactive: 0.019	inactive: -0.125	inactive: 0.03	inactive: 0.063	inactive: 0.069	inactive: 0.123	inactive: -0.039	inactive: 0.034	inactive: -0.027	inactive: 0.012	inactive: -0.035	inactive: -0.217
GYG1 isoform 2 (UniProt P46976)	inactive: -0.112	inactive: 0.013	inactive: -0.035	inactive: -0.034	inactive: -0.01	inactive: -0.003	inactive: 0.113	inactive: 0.027	inactive: 0.098	inactive: 0.045	inactive: 0.029	inactive: -0.01	inactive: -0.052	inactive: -0.053	inactive: 0.028	inactive: 0.069	inactive: -0.034	inactive: -0.005	inactive: 0.015	inactive: 0.084
HEATR5A (UniProt Q86XA9)	inactive: 0.016	inactive: 0.026	inactive: -0.026	inactive: -0.01	inactive: 0.002	inactive: 0.028	inactive: 0.024	inactive: -0.067	inactive: -0.019	inactive: 0.009	inactive: -0.005	inactive: -0.043	inactive: 0.011	inactive: -0.065	inactive: 0.016	inactive: 0.032	inactive: -0.057	inactive: -0.026	inactive: 0.004	inactive: 0.002
HEATR1 (UniProt Q9H583)	inactive: 0.071	inactive: 0.023	inactive: 0.052	inactive: -0.063	inactive: -0.023	inactive: -0.01	inactive: 0.068	inactive: -0.184	inactive: -0.007	inactive: 0.026	inactive: -0.024	inactive: 0.001	inactive: 0.014	inactive: 0.016	inactive: -0.02	inactive: 0.064	inactive: 0.028	inactive: 0.024	inactive: -0.007	inactive: -0.003
HDGFL2 isoform 2 (UniProt Q7Z4V5)	inactive: 0.016	inactive: -0.003	inactive: -0.01	inactive: 0.064	inactive: 0.052	inactive: -0.066	active: -0.417	inactive: 0.196	inactive: -0.015	inactive: 0.038	inactive: -0.155	inactive: 0.011	inactive: 0.013	inactive: -0.008	inactive: 0.016	inactive: -0.004	inactive: -0.065	inactive: -0.029	inactive: 0	inactive: 0.03
GRAP2 (UniProt O75791)	inactive: -0.017	inactive: -0.014	inactive: -0.025	inactive: 0.026	inactive: -0.016	inactive: -0.026	inactive: 0.017	inactive: -0.034	inactive: 0.062	inactive: -0.017	inactive: 0.023	inactive: -0.03	inactive: 0.016	inactive: 0.002	inactive: 0	inactive: -0.045	inactive: 0.033	inactive: -0.027	inactive: -0.003	inactive: 0.02
HDAC1 (UniProt Q13547)	inactive: 0.01	inactive: 0.022	inactive: -0.001	inactive: -0.004	inactive: -0.019	inactive: 0.03	inactive: -0.036	inactive: -0.001	inactive: 0.014	inactive: -0.011	inactive: 0.003	inactive: -0.027	inactive: -0.015	inactive: 0.014	inactive: -0.012	inactive: 0.006	inactive: 0.04	inactive: 0.017	inactive: -0.031	inactive: 0.004
GUF1 (UniProt Q8N442)	inactive: 0.179	inactive: -0.144	inactive: 0.02	inactive: -0.005	inactive: 0.113	inactive: 0.071	inactive: 0.005	inactive: 0.054	inactive: 0.076	inactive: -0.007	inactive: -0.204	inactive: -0.058	inactive: 0.025	inactive: -0.019	inactive: 0.029	inactive: -0.051	inactive: 0.019	inactive: -0.006	inactive: 0.038	inactive: -0.115
HDLBP, A0A024R4E5	inactive: 0.008	inactive: 0.024	inactive: -0.017	inactive: 0.016	inactive: -0.04	inactive: 0.011	inactive: -0.018	inactive: -0.008	inactive: -0.002	inactive: 0.004	inactive: -0.004	inactive: -0.082	inactive: 0.01	inactive: 0.001	inactive: 0.004	inactive: 0.028	inactive: 0.073	inactive: -0.005	inactive: 0.003	inactive: 0.003
HCFC1 isoform 4 (UniProt P51610)	inactive: -0.014	inactive: 0.003	inactive: -0.018	inactive: 0.04	inactive: 0.017	inactive: -0.029	inactive: -0.045	inactive: 0.055	inactive: 0.004	inactive: 0.014	inactive: 0.013	inactive: 0.009	inactive: 0.007	inactive: 0.004	inactive: 0.03	inactive: -0.012	inactive: -0.039	inactive: -0.001	inactive: 0.009	inactive: -0.026
H2AZ1 (UniProt P0C0S5)	inactive: -0.004	inactive: 0.012	inactive: 0.001	inactive: 0.009	inactive: -0.005	inactive: 0.021	inactive: 0.031	inactive: 0	inactive: -0.026	inactive: -0.053	inactive: -0.038	inactive: 0.062	inactive: -0.054	inactive: 0.014	inactive: 0.142	inactive: -0.023	inactive: 0.042	inactive: -0.004	inactive: 0.009	inactive: -0.027
GSPT2 (UniProt Q8IYD1)	inactive: -0.004	inactive: 0.031	inactive: 0.066	inactive: -0.119	inactive: -0.056	inactive: -0.023	inactive: -0.036	inactive: 0.109	inactive: -0.004	inactive: 0.011	inactive: -0.046	inactive: -0.042	inactive: 0.037	inactive: 0.037	inactive: 0.028	inactive: 0	inactive: 0.026	inactive: 0.02	inactive: 0.009	inactive: -0.016
H1-2 (UniProt P16403)	inactive: 0.011	inactive: -0.024	inactive: -0.004	inactive: -0.001	inactive: -0.008	inactive: -0.033	inactive: -0.02	inactive: 0.035	inactive: -0.003	inactive: 0.016	inactive: -0.022	inactive: 0.017	inactive: -0.011	inactive: 0.014	inactive: -0.008	inactive: -0.027	inactive: -0.031	inactive: 0.004	inactive: 0.011	inactive: -0.023
H4C1 (UniProt P62805)	inactive: -0.013	inactive: 0.087	inactive: 0.079	inactive: -0.055	inactive: 0.027	inactive: 0.079	inactive: 0.268	inactive: -0.01	inactive: -0.094	inactive: -0.059	inactive: -0.101	active: 0.373	inactive: -0.023	inactive: -0.02	active: 0.569	inactive: 0.038	inactive: 0.051	inactive: 0.018	inactive: 0.012	inactive: -0.008

Two entries from above, as a markdown table.

| Target | log2 fold change (vemurafenib) | log2 fold change [1] | log2 fold change (barasertib) | log2 fold change [2] | log2 fold change (volasertib) | log2 fold change [3] | log2 fold change [4] | log2 fold change [5] | log2 fold change (saracatinib) | log2 fold change (sotrastaurin) | log2 fold change (alvocidib) | log2 fold change (Tubastatin A) | log2 fold change [6] | log2 fold change (defactinib) | log2 fold change [7] | log2 fold change (encorafenib) | log2 fold change [8] | log2 fold change (alisertib) | log2 fold change [9] | log2 fold change (gefitinib) |
| --- | --- | --- | --- | --- | --- | --- | --- | --- | --- | --- | --- | --- | --- | --- | --- | --- | --- | --- | --- | --- |
| GRAP2 (UniProt O75791) | inactive: -0.017 | inactive: -0.014 | inactive: -0.025 | inactive: 0.026 | inactive: -0.016 | inactive: -0.026 | inactive: 0.017 | inactive: -0.034 | inactive: 0.062 | inactive: -0.017 | inactive: 0.023 | inactive: -0.03 | inactive: 0.016 | inactive: 0.002 | inactive: 0 | inactive: -0.045 | inactive: 0.033 | inactive: -0.027 | inactive: -0.003 | inactive: 0.02 |
| HDAC1 (UniProt Q13547) | inactive: 0.01 | inactive: 0.022 | inactive: -0.001 | inactive: -0.004 | inactive: -0.019 | inactive: 0.03 | inactive: -0.036 | inactive: -0.001 | inactive: 0.014 | inactive: -0.011 | inactive: 0.003 | inactive: -0.027 | inactive: -0.015 | inactive: 0.014 | inactive: -0.012 | inactive: 0.006 | inactive: 0.04 | inactive: 0.017 | inactive: -0.031 | inactive: 0.004 |
